SMILES: CC(C)(C)c1ccc(NC(=O)Oc2ccc3c(c2)CCN3Cc2ccccc2)cc1
- melting point: 175 to 178 °C

Source: patent US8686024B2, “Indoline derivatives” (priority 2009, dated 2014)
